The supplement of paper PMC5949888
Most values lie at the floor of the assay. Slopes are relative: functional sequences can read slightly below zero.

Each substance was assayed on Saccharomyces cerevisiae PS128 hsf1 delta, HSF1(1-493) fusion (assay: growth estimate (transactivation domain function in HSF1 fusion, heat-shock survival) (a.u. (slope of normalised read count over time)); higher = stronger growth at 37°C, i.e. more transactivation activity). Details: library: random library.
With PQFGCRKAATSWASSRQART the growth estimate was -0.245.
PQGERVSLKPGHGCRNCDKG gave a growth estimate of under -0.25.
PQGKVPLTFHEWTNRYRSA was tested, and the growth estimate was under -0.25.
For PQHWYRAHAFCLPRAIKSLV, the growth estimate was under -0.25.
In the case of PQNWDTALGLDEGVGYGQGQ, the growth estimate is reported as -0.245.
PQPVIFRT gave a growth estimate of under -0.25.
In the case of PQRHCINAIPRTCSENFPLS, the growth estimate is reported as under -0.25.
Substance PQRRSWRI has a growth estimate of under -0.25.
With PQSPVTRRCPSLARRRSFMV the growth estimate was under -0.25.
PQVINRTPCVMSKFSCRLPS was tested, and the growth estimate was under -0.25.
PRAGSAPKLVRLCSSFSRGV was tested, and the growth estimate was under -0.25.
Work on PRARCHPHSLLNARFGDWDM yielded a growth estimate of under -0.25.
PRARLAGVICTWHESLVREW was tested, and the growth estimate was under -0.25.
For PRASSYSIFR, the growth estimate was under -0.25.
With PRASYQVLALVSAL the growth estimate was under -0.25.
Work on PRCAYDRRSYLSRYGRE yielded a growth estimate of under -0.25.
PRCVLDLLYVSRSSRHWKVL was tested, and the growth estimate was under -0.25.
PRDAKHGRWLDAAWTVSWRL showed a growth estimate of under -0.25.
PRDFTRRMLSF was tested, and the growth estimate was under -0.25.
In the case of PRECRAEEPFVGG, the growth estimate is reported as under -0.25.
Work on PRFVLIGRTVRTSGTELGAA yielded a growth estimate of under -0.25.
PRGFDGKIR gave a growth estimate of under -0.25.
PRGFTHAKKAKF was tested, and the growth estimate was under -0.25.
PRGLCGLHFDGQH showed a growth estimate of -0.183.
In the case of PRGRCRGPVYRSS, the growth estimate is reported as under -0.25.
Work on PRHSAGQ yielded a growth estimate of under -0.25.
Substance PRHSRKWHGHRGSLLPASRG has a growth estimate of under -0.25.
Work on PRILVCERRGPK yielded a growth estimate of under -0.25.
For PRKSSMGVSSCEFAEKCCAR, the growth estimate was under -0.25.
Work on PRLDGGGISLYNIVWGAQAW yielded a growth estimate of under -0.25.
With PRLMQKRSSLSGDMGATASR the growth estimate was under -0.25.
Substance PRMTRHRPSCIVLVHQWCTQ has a growth estimate of under -0.25.
For PRNSSSGLSMRLCVVHVNSD, the growth estimate was under -0.25.
PRPGPLTQTRVFGRRDNGVE showed a growth estimate of under -0.25.
For PRPLPWPLSDGGGLR, the growth estimate was under -0.25.
Work on PRPLSPPLATRQKLIV yielded a growth estimate of under -0.25.
Substance PRPVSEELSSGTVGVFSVLA has a growth estimate of under -0.25.
Work on PRQQSSVAELMCFCRRRVGY yielded a growth estimate of under -0.25.
In the case of PRRGRLKGLIMVNLTLLGVH, the growth estimate is reported as under -0.25.
PRRGVDGE showed a growth estimate of under -0.25.
For PRRRIALPGECHVLGGLGQG, the growth estimate was under -0.25.
PRSGDICKNRFEGINVRPLK was tested, and the growth estimate was under -0.25.
For PRSYDSEVGKPVSNG, the growth estimate was under -0.25.
PRSYPH was tested, and the growth estimate was under -0.25.
In the case of PRTGLLFPRMSVSVGLTGWA, the growth estimate is reported as under -0.25.
In the case of PRTSCAVLKTLLAVRELLAQ, the growth estimate is reported as under -0.25.
For PRTSRTHPQ, the growth estimate was under -0.25.
PRVLCFRVFQTDRTTRQFGG was tested, and the growth estimate was under -0.25.
PRVSMFNQVYITRRNYHSAG gave a growth estimate of under -0.25.
Substance PRVTVHTVPAATGDR has a growth estimate of under -0.25.
Work on PRVYREL yielded a growth estimate of under -0.25.
In the case of PRYNRSCFRSSRVRFRSATS, the growth estimate is reported as under -0.25.
In the case of PSAD, the growth estimate is reported as under -0.25.
PSAFKDSWELCVRVAVALSV gave a growth estimate of under -0.25.
PSAGLYLRPVIA was tested, and the growth estimate was under -0.25.
PSAGSTDPQIYSAIRAFPYR showed a growth estimate of under -0.25.
PSARVPCTTYVPSMAHSHRA was tested, and the growth estimate was under -0.25.
For PSASEQGTCLRGITCKAGDY, the growth estimate was under -0.25.
Work on PSCSLVLIRIAFDRGLNILH yielded a growth estimate of under -0.25.
Work on PSDLCRNVVS yielded a growth estimate of under -0.25.
PSEFLTAARNKGSNAHD was tested, and the growth estimate was -0.246.
PSGGQDYGQQISISRTGYLG was tested, and the growth estimate was under -0.25.
In the case of PSGQAN, the growth estimate is reported as under -0.25.
PSGSAALRSCDHGSPRIPLA was tested, and the growth estimate was under -0.25.
PSHTAGPIGHDASH gave a growth estimate of under -0.25.
In the case of PSHTIWGCNGLPRWVCRGGG, the growth estimate is reported as under -0.25.
Substance PSIFLATLMTHVRQPRESRR has a growth estimate of -0.243.
PSILITQRLI gave a growth estimate of under -0.25.
With PSIPG the growth estimate was under -0.25.
PSKDKVFPVYWFIGLV gave a growth estimate of under -0.25.
Work on PSKDSVG yielded a growth estimate of under -0.25.
PSKLGIYTLLKRLGR gave a growth estimate of under -0.25.
With PSKTQECLQGDRNAPNRKVS the growth estimate was under -0.25.
Work on PSKWQVIRLELADIRRAIAL yielded a growth estimate of under -0.25.
PSLIANIKVRHLGRQYSSLV showed a growth estimate of under -0.25.
With PSLLHEPLNPALGVPHRGPI the growth estimate was under -0.25.
